The supplement of paper PMC12819154, “High-throughput peptide-centric local stability assay extends protein–ligand identification to membrane proteins, tissues and bacteria” (Nature Structural & Molecular Biology, 2025)
This is one part of the list. Most entries show no effect beyond the scatter of the controls.

Protein sequences, listed by entry. Tags and fused reporters are not part of them. Lines headed by an entry give the natural chain unless they say otherwise; changes in a name come on top.
UniProt P02100: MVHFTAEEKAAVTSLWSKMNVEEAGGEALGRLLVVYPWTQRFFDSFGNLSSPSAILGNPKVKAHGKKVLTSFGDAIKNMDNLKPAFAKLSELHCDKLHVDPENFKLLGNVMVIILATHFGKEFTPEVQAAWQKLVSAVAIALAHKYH
UniProt P10515, whole entry: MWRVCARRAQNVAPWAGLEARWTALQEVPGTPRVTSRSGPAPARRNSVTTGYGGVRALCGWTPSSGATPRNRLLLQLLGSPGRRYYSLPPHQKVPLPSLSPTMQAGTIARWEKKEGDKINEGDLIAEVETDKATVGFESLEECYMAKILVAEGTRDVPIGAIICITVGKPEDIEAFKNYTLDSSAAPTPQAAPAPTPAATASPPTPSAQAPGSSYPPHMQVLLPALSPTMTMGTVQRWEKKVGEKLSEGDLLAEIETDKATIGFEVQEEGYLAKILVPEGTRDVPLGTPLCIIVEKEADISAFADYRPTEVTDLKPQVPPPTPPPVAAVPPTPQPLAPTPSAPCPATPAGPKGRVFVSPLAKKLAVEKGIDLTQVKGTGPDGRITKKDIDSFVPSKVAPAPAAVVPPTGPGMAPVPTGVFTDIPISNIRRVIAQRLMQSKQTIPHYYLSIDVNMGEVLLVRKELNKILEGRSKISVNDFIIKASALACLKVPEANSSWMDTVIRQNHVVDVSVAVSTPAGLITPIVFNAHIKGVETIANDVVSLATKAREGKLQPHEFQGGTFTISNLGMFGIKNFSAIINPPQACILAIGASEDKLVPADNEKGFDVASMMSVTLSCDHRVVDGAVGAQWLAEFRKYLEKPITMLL
UniProt P11908: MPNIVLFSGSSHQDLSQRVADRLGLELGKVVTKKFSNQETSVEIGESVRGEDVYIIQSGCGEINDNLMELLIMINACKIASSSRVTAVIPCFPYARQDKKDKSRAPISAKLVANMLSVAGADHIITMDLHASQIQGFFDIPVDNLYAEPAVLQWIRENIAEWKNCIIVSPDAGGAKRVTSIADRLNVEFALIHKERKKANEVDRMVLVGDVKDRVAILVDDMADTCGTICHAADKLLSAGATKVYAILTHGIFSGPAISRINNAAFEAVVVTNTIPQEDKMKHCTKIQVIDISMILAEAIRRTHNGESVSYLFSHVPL
UniProt P11274: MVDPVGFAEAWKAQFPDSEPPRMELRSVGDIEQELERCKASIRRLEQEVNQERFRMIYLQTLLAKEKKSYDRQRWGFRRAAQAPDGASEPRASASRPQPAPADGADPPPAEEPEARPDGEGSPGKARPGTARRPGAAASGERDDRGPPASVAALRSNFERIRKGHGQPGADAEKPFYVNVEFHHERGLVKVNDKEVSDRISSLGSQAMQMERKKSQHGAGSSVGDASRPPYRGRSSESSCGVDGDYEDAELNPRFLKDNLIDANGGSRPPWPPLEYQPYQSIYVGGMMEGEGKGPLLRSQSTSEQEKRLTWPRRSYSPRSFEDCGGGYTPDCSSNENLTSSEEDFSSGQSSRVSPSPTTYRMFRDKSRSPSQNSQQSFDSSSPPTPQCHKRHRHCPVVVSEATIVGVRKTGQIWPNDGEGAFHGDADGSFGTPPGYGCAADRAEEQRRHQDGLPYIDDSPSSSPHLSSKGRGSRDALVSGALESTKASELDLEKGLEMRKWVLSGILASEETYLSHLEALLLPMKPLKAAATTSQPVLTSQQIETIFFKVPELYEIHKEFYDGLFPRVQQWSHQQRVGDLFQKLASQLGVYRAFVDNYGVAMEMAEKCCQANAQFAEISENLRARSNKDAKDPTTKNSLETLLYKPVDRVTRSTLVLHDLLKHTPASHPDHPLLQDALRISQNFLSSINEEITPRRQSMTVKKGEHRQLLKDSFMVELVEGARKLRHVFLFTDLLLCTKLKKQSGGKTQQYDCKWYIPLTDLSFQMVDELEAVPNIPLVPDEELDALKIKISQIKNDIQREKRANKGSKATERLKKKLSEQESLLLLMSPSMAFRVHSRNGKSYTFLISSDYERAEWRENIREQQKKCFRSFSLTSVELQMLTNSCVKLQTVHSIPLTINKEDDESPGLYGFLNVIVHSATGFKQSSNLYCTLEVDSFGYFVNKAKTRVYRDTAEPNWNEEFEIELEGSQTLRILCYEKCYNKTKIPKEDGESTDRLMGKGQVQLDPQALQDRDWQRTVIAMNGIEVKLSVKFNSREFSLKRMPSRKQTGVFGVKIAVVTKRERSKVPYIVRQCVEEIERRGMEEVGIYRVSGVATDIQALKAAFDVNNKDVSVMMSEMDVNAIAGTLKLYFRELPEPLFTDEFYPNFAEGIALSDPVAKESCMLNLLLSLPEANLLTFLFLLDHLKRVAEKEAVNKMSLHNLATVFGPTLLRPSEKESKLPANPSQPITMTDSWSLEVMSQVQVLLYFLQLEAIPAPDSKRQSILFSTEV
UniProt P11802: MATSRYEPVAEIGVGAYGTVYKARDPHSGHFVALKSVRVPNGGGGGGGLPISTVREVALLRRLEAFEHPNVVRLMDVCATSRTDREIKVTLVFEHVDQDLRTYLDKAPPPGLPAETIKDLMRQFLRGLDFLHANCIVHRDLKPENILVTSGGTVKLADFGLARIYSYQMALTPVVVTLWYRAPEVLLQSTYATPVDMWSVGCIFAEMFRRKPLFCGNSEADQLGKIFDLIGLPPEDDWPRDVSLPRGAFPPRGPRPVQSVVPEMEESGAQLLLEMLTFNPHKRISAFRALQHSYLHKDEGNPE
UniProt P11717, whole entry: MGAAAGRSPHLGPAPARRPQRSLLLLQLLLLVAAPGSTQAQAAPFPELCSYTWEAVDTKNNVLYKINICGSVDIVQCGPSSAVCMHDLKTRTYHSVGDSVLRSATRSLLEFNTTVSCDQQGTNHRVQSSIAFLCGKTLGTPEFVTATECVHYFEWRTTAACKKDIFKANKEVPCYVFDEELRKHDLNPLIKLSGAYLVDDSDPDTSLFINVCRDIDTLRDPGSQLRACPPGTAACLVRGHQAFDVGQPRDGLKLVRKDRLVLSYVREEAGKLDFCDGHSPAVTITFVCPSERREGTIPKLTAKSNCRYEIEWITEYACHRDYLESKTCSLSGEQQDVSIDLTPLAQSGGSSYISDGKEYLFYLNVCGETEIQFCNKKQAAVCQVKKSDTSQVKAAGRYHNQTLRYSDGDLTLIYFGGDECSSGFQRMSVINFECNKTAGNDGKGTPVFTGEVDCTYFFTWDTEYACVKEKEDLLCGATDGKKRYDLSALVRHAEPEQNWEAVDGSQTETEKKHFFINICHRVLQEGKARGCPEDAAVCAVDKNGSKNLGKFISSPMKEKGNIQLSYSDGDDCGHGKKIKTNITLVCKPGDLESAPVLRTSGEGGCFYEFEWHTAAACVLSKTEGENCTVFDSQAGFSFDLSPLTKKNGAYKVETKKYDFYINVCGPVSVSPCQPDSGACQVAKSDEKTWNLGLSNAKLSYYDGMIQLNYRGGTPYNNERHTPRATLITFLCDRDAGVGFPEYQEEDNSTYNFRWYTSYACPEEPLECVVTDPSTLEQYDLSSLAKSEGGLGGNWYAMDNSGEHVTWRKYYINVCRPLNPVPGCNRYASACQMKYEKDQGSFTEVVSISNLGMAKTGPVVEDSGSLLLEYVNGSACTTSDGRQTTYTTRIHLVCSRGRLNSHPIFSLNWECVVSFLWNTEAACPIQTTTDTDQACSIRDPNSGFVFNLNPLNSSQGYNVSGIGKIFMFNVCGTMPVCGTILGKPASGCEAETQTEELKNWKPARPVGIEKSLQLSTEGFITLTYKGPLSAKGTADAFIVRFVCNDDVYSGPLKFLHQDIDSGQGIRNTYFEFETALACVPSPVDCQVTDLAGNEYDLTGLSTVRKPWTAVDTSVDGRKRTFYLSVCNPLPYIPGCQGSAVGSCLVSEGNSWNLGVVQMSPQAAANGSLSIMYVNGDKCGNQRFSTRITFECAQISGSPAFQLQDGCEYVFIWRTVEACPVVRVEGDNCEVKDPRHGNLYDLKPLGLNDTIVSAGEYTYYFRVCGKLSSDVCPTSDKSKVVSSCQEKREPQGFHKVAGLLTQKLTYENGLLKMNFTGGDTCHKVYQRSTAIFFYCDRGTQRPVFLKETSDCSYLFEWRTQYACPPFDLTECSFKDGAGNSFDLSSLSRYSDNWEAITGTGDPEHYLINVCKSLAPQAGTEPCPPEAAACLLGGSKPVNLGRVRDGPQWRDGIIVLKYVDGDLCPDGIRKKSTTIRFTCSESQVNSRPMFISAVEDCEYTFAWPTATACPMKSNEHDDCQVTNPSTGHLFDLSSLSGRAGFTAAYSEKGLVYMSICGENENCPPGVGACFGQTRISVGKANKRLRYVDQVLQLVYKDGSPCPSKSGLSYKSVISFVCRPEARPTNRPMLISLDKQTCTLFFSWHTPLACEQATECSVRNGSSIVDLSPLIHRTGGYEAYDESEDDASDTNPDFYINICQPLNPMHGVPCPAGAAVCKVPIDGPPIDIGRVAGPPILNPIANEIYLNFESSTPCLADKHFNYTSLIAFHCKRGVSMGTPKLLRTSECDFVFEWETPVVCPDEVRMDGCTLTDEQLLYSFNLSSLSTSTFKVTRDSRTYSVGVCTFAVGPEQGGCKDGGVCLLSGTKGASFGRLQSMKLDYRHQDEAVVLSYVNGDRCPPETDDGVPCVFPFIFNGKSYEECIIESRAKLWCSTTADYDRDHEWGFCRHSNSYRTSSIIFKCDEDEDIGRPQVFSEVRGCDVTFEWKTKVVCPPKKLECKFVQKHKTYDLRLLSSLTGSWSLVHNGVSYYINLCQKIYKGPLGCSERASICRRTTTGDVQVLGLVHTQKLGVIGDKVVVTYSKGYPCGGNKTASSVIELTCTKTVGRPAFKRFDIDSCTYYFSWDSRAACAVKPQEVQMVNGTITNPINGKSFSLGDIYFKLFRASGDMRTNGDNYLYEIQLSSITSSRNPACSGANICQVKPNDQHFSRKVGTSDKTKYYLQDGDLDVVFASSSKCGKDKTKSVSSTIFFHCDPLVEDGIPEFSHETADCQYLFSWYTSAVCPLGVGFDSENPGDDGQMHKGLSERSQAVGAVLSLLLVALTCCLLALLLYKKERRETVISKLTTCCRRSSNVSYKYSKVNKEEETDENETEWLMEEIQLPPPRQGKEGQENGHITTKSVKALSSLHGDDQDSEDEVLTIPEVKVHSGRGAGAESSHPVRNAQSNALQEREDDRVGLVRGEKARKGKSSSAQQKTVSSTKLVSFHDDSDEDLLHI
UniProt P0CG47, whole entry, looked up: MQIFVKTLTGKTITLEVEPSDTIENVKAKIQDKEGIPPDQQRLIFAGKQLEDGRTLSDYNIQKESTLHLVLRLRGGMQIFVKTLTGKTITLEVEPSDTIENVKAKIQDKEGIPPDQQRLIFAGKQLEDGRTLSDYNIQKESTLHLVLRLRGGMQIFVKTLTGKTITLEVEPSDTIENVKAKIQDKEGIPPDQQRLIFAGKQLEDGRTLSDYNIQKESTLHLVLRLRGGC

Compound: Cc1nc(Nc2ncc(C(=O)Nc3c(C)cccc3Cl)s2)cc(N2CCN(CCO)CC2)n1 [dasatinib]
Assay: log2 fold change of tryptic peptide abundance, ligand vs vehicle (limited proteolysis) (log2 ratio); higher = more trypsin-susceptible (destabilized)
Conditions: ligand concentration: 5 uM; sample: K562 cleared lysate

| Target | log2 fold change |
| --- | --- |
| HBE1 (peptide sequence: MVHFTAEEK, peptide start residue: 1) (UniProt P02100) | 0.255 |
| UniProt P0C0S8 (peptide sequence: AGLQFPVGRVHR, peptide start residue: 22) | 0.102 |
| DLAT (peptide sequence: KDIDSFVPSK, peptide start residue: 387) (UniProt P10515) | -0.303 |
| PRPS2 (peptide sequence: PNIVLFSGSSHQDLSQR, peptide start residue: 2) (UniProt P11908) | 0.0394 |
| BCR (peptide sequence: EFYDGLFPR, peptide start residue: 559) (UniProt P11274) | -0.394 |
| CDK4 (peptide sequence: DPHSGHFVALK, peptide start residue: 25) (UniProt P11802) | -0.224 |
| IGF2R (peptide sequence: LTYENGLLK, peptide start residue: 1302) (UniProt P11717) | -0.222 |
| UniProt P0CG47 (peptide sequence: EGIPPDQQR, peptide start residue: 34) | 0.214 |
